From patent publication US20160257958
Construct, isoform or probe ends are uncertain for at least one entry. For part of these data: Negatives hold for the conditions tested. For part of these data: Protein sequences can lack the tags named with them. For part of these data: The comparison behind a weaker result is the experiment's own reference, which may not be listed here.

Chains of the proteins cited; added tags and fusions are not shown. Lines headed by an entry give the natural chain unless they say otherwise; changes in a name come on top.
UniProt P81172: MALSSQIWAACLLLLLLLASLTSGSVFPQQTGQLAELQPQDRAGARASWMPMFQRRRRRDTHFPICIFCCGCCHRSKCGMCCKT
UniProt Q9EQ21: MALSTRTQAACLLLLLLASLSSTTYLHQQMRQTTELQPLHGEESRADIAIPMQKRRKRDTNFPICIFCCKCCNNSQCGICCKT
UniProt Q99MH3: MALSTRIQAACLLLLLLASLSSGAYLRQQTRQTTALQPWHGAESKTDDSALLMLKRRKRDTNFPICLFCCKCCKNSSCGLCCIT

Experiments:
[1] = tested on: T1, cynomolgus hepcidin-25 (Macaca fascularis); experiment: binding assay; details: L-RNA, similar to human hepcidin-25, synthetic protein, protein details: synthetic L-peptide, mirror-image nucleic acid
T1 sequence: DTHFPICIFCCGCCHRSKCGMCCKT

[2] = target: human hepcidin-20 (Homo sapiens) (UniProt P81172); experiment: binding assay; details: L-RNA, similar to human hepcidin-25, synthetic protein, protein details: synthetic L-peptide (BACHEM), mirror-image nucleic acid
[3] = target: human hepcidin-22 (Homo sapiens) (UniProt P81172); experiment: binding assay; details: L-RNA, similar to human hepcidin-25, synthetic protein, protein details: synthetic L-peptide, mirror-image nucleic acid
[4] = target: T2, mouse hepcidin-25 (Mus musculus) (UniProt Q9EQ21); experiment: binding assay; details: L-RNA, no binding, synthetic protein, protein details: synthetic L-peptide (BACHEM), mirror-image nucleic acid
T2 sequence: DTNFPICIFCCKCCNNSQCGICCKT

[5] = target: T3, rat hepcidin-25 (Rattus norvegicus) (UniProt Q99MH3); experiment: binding assay; details: L-RNA, no binding, synthetic protein, protein details: synthetic L-peptide (BACHEM), mirror-image nucleic acid
T3 sequence: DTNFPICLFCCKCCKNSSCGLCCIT

[6] = target: T4, human hepcidin-25 (L-peptide) (Homo sapiens) (UniProt P81172); experiment: activity in cells; details: L-RNA, synthetic protein, mirror-image nucleic acid
T4 sequence: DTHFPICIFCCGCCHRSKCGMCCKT

[7] = target: T4, human hepcidin-25 (L-peptide) (Homo sapiens); experiment: SPR; details: L-RNA, synthetic protein, mirror-image nucleic acid
marmoset hepcidin-25 = target: T5, marmoset hepcidin-25 (UniProt A7XEI5); experiment: binding assay; details: L-RNA, synthetic protein, protein details: synthetic L-peptide, mirror-image nucleic acid
T5 sequence (looked up): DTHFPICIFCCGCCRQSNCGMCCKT

[8] = target: human hepcidin-20 (Homo sapiens) (UniProt P81172); experiment: SPR; details: L-RNA; almost same affinity as for hepcidin-25; synthetic protein; protein details: synthetic L-peptide (BACHEM); mirror-image nucleic acid; variant of 223-C5-001 (D-RNA)

## AGCGUGUCGUAUGGGAUUAAGUAAAUGAGGAGUUGGAGGAAGGGCAUGCU [238-D4-001 (L-RNA)]
[1]; variant of 238-D4-001 (D-RNA)
  binding result: binds
[2]; variant of 238-D4-001 (D-RNA)
  binding result: binds
[3]; variant of 238-D4-001 (D-RNA)
  binding result: binds
[4]; variant of 238-D4-001 (D-RNA)
  binding result: no binding
[5]; variant of 238-D4-001 (D-RNA)
  binding result: no binding

## GCUGUGUAAAGUAGAGGACAAUUGUCGGCGUGAUAGUGCCACAGC [229-B1-002 (L-RNA)]
[1]; variant of 229-B1-002 (D-RNA)
  binding result: binds
[2]; variant of 229-B1-002 (D-RNA)
  binding result: binds
[3]; variant of 229-B1-002 (D-RNA)
  binding result: binds
[4]; variant of 229-B1-002 (D-RNA)
  binding result: no binding
[5]; variant of 229-B1-002 (D-RNA)
  binding result: no binding

## GCGCCGUAUGGGAUUAAGUAAAUGAGGAGUUGGAGGAAGGGCGC [238-D4-008-5'-PEG (NOX-H94)]
[6]; 5'-40 kDa PEG, blocks hepcidin-induced ferroportin down-regulation in J774.1 cells, variant of 238-D4-008 (L-RNA), dose not given here
  functional effect of the aptamer: active

## GGUGUCGUAUGGGAUUAAGUAAAUGAGGAGUUGGAGGAAGGGCAUC [238-D4-006 (L-RNA)]
[7]; Kd in same range as 238-D4-001, variant of 238-D4-006 (D-RNA)
  binding result: binds

## GCACUCGUAAAGUAGAGGGACCCAGUCCGGCGUGAUAGUGCCGAGUGC [223-C5-001-5'-PEG]
[6]; 5'-40 kDa PEG, blocks ferroportin down-regulation by 100 nM hepcidin in J774.1 cells, variant of 223-C5-001 (L-RNA)
  functional effect of the aptamer: active

## GGCCGGACAGCCGGGGGACACCAUAUACAGACUACGAUACGGCC [238-C4-006 (L-RNA)]
[7]; Kd in same range as 238-C4-001, variant of 238-C4-006 (D-RNA)
  binding result: binds
[1]; variant of 238-C4-006 (D-RNA)
  binding result: binds
[2]; variant of 238-C4-006 (D-RNA)
  binding result: binds
[3]; variant of 238-C4-006 (D-RNA)
  binding result: binds
Marmoset hepcidin-25; no binding, variant of 238-C4-006 (D-RNA)
  binding result: no binding
[4]; variant of 238-C4-006 (D-RNA)
  binding result: no binding
[5]; variant of 238-C4-006 (D-RNA)
  binding result: no binding

## GCGCCGUAUGGGAUUAAGUAAAUGAGGAGUUGGAGGAAGGGCGC [238-D4-008 (L-RNA)]
[7]; Kd in same range as 238-D4-001, variant of 238-D4-008 (D-RNA)
  binding result: binds
[1]; variant of 238-D4-008 (D-RNA)
  binding result: binds
[2]; variant of 238-D4-008 (D-RNA)
  binding result: binds
Marmoset hepcidin-25; weaker than human hepcidin-25, variant of 238-D4-008 (D-RNA)
  binding result: binds more weakly
[4]; variant of 238-D4-008 (D-RNA)
  binding result: no binding
[5]; variant of 238-D4-008 (D-RNA)
  binding result: no binding

## GGCUCGGACAGCCGGGGGACACCAUAUACAGACUACGAUACGGGCC [238-C4-002 (L-RNA)]
[7]; Kd in same range as 238-C4-001, variant of 238-C4-002 (D-RNA)
  binding result: binds

## GCGCCGUAUGGGAUUAAGUAAAUGAGGAGUUGGAGGAAGGGCGC [238-D4-008-5'-Amino]
[6]; 5'-amino, blocks hepcidin-induced ferroportin down-regulation in J774.1 cells, variant of 238-D4-008 (L-RNA), dose not given here
  functional effect of the aptamer: active

## GCACUCGUAAAGUAGAGGGACCCAGUCCGGCGUGAUAGUGCCGAGUGC [223-C5-001 (L-RNA)]
[8]
  binding result: binds

## GCGCGCGUAUGGGAUUAAGUAAAUGAGGAGUUGGAGGAAGGCGCGC [238-D4-002 (L-RNA)]
[7]; Kd in same range as 238-D4-001, variant of 238-D4-002 (D-RNA)
  binding result: binds
